This is a noisy data set.
B1: human tRNA-Pro; a variant is named by its letters at N, in order (parent)
chain: GGCTCGTTGGTCTAGNGGTATGATTCTCGCTTAGGGTGCGAGAGGTCCCGGGTTCNNATCCCGGACGAGCCC

Columns and labels:
[1] = variants of: B1; experiment: tRNA Pol-III promoter activity, log2 (circRNA frequency / plasmid DNA frequency) (log2 ratio); higher = stronger promoter activity; details: HEK293T; construct: no Pol-II promoter ((-)CMV library)
[2] = variants of: B1; experiment: tRNA 3' processing efficiency (processed reads / all reads, maximum-likelihood estimate) (fraction); higher = more efficient 3' processing; details: HEK293T; construct: no Pol-II promoter ((-)CMV library)
[3] = variants of: B1; experiment: tRNA 5' processing efficiency (processed reads / all reads, maximum-likelihood estimate) (fraction); higher = more efficient 5' processing; details: HEK293T; construct: CMV Pol-II promoter ((+)CMV library, decapped)

Variant	tRNA Pol-III promoter activity (log2) [1]	tRNA 3' processing efficiency [2]	tRNA 5' processing efficiency [3]
GGA T19C C55A	4.62	0.33	
CCG	5.28	0.43	
GTA T8G	-0.583	0.29	
GAA T8C A14T	-0.251	0.25	0.2
GAG A20T A58G T59A	7.1	0.44	
GAA A20T T59G	1.18	0.32	
GAT G15A G17A	2.59	0.14	
GAA C55G A58T	-0.175	0.17	0.25
GAG G15A	0.643	0.43	
GTA A14G G15A	3.72	0.5	
GAA G15A T19C T53A	6.25	0.4	
GAA T19A A58G T59A	5.51	0.33	
TTA T53G A58T	6.51	0.17	
AAA G15A A58T	3.36	0.33	
AAA A14T T59A	4.03	0.4	
GAT G9A A14G	3.72	0.33	
GAA A14T T53C	1.11	0.2	
GAG A14G A58T	4.08	0.09	
GAA T19C C55G	1.19	0.4	
AAG A20T A58T	3.71	0.17	
GGG A20T A58G	9.35	0.05	
GCA T19C	2.82	0.25	
ATA T53G A58G	5.51	0.33	

Variant	tRNA Pol-III promoter activity (log2) [1]	tRNA 3' processing efficiency [2]	tRNA 5' processing efficiency [3]
ATG	3.33	0.25	
GAA T8C A20T T59C	3.9	0.39	
CAT A58G	1.87	0.25	
AAA G15A T53A	3.74	0.43	
TTA C55G A58T	6.26	0.7	
GAC G9A A14G	3.03	0.17	
TAA A20T T59G	3.93	0.62	
GAG T8C T54G	3.34	0.25	
TTA A14G	2.34	0.33	
GAA A14C T59G	2.6	0.52	
GAG A14G T19C	8.1	0.67	
GAT G15C G18T	3.23	0.25	
GCC A58G	4.25	0.4	
GAA A14G A20T	2.07	0.21	
GAA A14G C55G	-0.478	0.2	0.4
GAG T8C T19A	4.34	0.55	
GGA A20T T59C	3.22	0.31	
GAA G15T C55T T59G	4.34	0.13	
TAG A14T	2.16	0.14	
GAT G17A T19G	1.45	0.4	
GCA T19A T59A	5.53	0.56	
GAA T8C A14T G15T A58G	5.36	0.4	
GAC G9T T53A	2.51	0.33	

Variant	tRNA Pol-III promoter activity (log2) [1]	tRNA 3' processing efficiency [2]	tRNA 5' processing efficiency [3]
GAG A58G T59A	5.53	0.5	0.33
AAG T53C	3.41	0.44	
GTA A20G	0.876	0.3	
GGG T19A	5.51	0.11	
GTC A14G T59G	5.25	0.4	
TAA A14T T53A	2.31	0.22	
CGA A14G G18T C55G	7.64	0.31	
GAG A14T G18A	3.61	0.27	
GGA T8C T59C	6.03	0.38	
CAA C55T	0.796	0.35	
GGA G17T T53A	4.1	0.17	
GAA A14C G15T G18A A58T	6.75	0.57	
CAT A14C	4.73	0.75	
GAA T8C T53A	1.61	0.21	0.33
GAA A14G T53A A58C	5.59	0.68	
GAA T59A	0.894	0.36	0.25
GAA G9A T53A A58G T59A	5.75	0.57	
GAA T19A T54G	0.881	0.64	
GAG G9A A14G	2.86	0.25	0.6
CAA G15A T59G	4.93	0.25	
GAG A14C	2.69	0.4	
TAA T19G T54A	3.03	0.25	
GAA T8A C55A	0.418	0.7	

Variant	tRNA Pol-III promoter activity (log2) [1]	tRNA 3' processing efficiency [2]	tRNA 5' processing efficiency [3]
GGC T8A T54A A58T	5.45	0.62	
CAG T19G	4.36	0.25	
GAA G15A G17A A20T T59G	3.65	0.33	
GAT G18A A58T	3.53	0.22	
GAA T8C A58T T59A	5.53	0.17	
TGA A14G A58G	5.52	0.93	
GAA A14T C55T	-1.22	0.57	
GAG T53A T59C	4.14	0.3	
GAA G17C T53A	0.178	0.39	
CAA A14C T59A	3.71	0.25	
AAA C55A	-0.966	0.25	
GAG A14T T59C	2.86	0.25	
GTC G18A	5.31	0.82	
GAA A20G T53C A58T	3.26	0.2	
GAG T8G G15C	4.86	0.36	
GAT A14G A20T	3.03	0.3	
CAA T53A	3.53	0.44	0.33
GAA A14T T19A A58T T59G	4.26	0.2	
GAA A14T A20T T53A	2.28	0.17	
GAA A14G A58T T59G	3.07	0.17	
GAA A14C A20T T53G	4.93	0.5	
GAA G18A T19C A58T	3.19	0.4	
GAA A14T T53A T59C	3.03	0.25	

Variant	tRNA Pol-III promoter activity (log2) [1]	tRNA 3' processing efficiency [2]	tRNA 5' processing efficiency [3]
CAA T59A	2.7	0.49	
GTA T19A A58G	4.77	0.26	
GAG A58T T59A	4.13	0.25	
GAC T8A	-1.58	0.5	
GAT T8A G15C	3.34	0.17	
GAA A58G T59C	3.12	0.53	
AAA T19A C55T	1.83	0.33	
AAT T53G	3.36	0.25	
CAA A20G	0.357	0.33	
GGA A14C	1.84	0.13	
TAA G15C	-0.73	0.25	
GGA A14G G17A T54A	5.62	0.33	
CAG T19C C55G	2.71	0.5	
GAT G15A G17T	2.71	0.25	
GAT G9A T19G	4.61	0.62	
GAA G18A A20G A58T	2.9	0.2	
TAA T54A A58G	2.55	0.8	
GAA T19C A58G T59G	8.11	0.22	
AAT G15C	3.67	0.2	
GCA A58T	1.48	0.29	0.22
GAA G15C A58G T59G	5.21	0.17	

Part of the list above, reformatted:
GTA T19A A58G
  tRNA Pol-III promoter activity (log2) [1] = 4.77
  tRNA 3' processing efficiency [2] = 0.26
GGA A14G G17A T54A
  tRNA Pol-III promoter activity (log2) [1] = 5.62
  tRNA 3' processing efficiency [2] = 0.33
GAA T19C A58G T59G
  tRNA Pol-III promoter activity (log2) [1] = 8.11
  tRNA 3' processing efficiency [2] = 0.22

— the supplement of paper PMC6445147
